Patent US11174303B2, “Single-chain insulin analogues stabilized by a fourth disulfide bridge” (Case Western Reserve University, priority 2017, dated 2021)
Not every detail of the peptide structures is certain; ends, links or a residue may be inferred. Positions of bridges follow the written chain, without caps; N, C: chain ends. No end group written: not given here.

Chains of the proteins cited; added tags and fusions are not shown. Residues count along the entry.
UniProt P06213, 28-758 limits assumed: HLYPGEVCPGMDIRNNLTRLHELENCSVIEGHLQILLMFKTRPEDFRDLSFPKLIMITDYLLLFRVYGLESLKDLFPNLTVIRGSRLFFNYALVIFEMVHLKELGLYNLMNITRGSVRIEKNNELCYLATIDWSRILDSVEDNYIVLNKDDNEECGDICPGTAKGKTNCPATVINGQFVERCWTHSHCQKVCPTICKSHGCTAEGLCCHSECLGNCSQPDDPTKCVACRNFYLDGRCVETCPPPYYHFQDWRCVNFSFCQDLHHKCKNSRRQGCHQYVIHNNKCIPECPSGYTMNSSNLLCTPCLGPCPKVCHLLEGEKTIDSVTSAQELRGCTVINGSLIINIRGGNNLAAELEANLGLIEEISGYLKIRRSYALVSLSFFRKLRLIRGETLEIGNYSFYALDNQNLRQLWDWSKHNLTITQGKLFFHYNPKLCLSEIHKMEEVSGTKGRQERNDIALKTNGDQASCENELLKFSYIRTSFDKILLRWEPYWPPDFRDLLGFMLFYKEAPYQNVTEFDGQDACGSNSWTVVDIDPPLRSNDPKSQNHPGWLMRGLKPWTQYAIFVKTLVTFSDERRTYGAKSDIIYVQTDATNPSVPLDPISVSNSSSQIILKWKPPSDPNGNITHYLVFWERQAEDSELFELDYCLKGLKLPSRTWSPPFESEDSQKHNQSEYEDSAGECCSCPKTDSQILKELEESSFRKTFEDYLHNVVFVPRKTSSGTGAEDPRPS
UniProt P06213, 763-1382 partner limits assumed: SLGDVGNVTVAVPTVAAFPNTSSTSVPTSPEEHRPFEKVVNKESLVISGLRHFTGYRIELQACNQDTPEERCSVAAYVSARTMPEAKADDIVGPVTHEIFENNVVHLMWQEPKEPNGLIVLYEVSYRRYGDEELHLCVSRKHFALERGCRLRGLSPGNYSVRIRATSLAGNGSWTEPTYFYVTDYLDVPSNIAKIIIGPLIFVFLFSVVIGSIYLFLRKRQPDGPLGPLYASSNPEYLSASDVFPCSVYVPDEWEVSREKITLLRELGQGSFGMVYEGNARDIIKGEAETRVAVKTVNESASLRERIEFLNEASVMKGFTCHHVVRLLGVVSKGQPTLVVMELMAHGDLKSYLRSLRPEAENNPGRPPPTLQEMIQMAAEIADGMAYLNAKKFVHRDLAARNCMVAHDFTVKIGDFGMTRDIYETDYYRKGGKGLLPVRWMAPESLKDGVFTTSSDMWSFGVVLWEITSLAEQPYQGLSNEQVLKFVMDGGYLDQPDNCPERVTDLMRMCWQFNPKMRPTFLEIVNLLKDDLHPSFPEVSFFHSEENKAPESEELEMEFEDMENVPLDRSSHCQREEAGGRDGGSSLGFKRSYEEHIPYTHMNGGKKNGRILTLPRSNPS
UniProt P06213, 28-746 isoform P06213-2 limits assumed: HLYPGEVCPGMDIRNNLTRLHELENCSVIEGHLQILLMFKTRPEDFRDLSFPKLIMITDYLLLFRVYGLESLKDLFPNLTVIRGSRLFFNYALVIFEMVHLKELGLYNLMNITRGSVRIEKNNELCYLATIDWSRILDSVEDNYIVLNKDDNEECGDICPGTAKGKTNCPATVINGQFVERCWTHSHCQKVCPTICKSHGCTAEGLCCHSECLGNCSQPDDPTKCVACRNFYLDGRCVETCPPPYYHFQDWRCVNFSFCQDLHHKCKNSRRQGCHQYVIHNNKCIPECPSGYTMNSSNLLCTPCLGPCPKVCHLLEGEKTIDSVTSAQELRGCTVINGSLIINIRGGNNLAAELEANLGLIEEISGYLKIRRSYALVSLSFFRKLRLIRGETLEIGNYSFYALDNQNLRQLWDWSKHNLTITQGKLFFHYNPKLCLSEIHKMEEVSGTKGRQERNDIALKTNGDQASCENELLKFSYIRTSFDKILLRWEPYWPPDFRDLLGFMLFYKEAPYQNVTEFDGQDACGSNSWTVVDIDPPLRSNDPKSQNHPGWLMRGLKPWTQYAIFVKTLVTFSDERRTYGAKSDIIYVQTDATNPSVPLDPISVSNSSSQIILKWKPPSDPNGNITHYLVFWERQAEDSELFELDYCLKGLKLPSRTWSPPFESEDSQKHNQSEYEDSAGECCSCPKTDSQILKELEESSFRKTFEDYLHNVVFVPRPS
UniProt P08069, 741-1367 partner limits assumed, species assumed: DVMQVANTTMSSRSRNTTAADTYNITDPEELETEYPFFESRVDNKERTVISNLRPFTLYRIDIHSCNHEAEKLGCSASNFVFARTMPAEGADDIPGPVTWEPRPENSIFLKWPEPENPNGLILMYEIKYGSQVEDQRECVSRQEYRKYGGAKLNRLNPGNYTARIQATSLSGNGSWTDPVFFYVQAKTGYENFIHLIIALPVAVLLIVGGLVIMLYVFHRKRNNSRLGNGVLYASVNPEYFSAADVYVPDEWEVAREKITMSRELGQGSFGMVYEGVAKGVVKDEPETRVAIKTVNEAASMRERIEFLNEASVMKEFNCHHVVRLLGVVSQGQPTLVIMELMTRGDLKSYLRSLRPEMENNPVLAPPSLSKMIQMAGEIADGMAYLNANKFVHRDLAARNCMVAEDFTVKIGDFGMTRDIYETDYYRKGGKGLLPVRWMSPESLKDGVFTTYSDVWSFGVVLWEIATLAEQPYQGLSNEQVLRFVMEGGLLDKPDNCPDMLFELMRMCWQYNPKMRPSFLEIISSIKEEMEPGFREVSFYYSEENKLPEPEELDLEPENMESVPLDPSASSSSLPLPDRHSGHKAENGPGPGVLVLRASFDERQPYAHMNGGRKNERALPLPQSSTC
UniProt P08069, 31-736 limits assumed, species assumed: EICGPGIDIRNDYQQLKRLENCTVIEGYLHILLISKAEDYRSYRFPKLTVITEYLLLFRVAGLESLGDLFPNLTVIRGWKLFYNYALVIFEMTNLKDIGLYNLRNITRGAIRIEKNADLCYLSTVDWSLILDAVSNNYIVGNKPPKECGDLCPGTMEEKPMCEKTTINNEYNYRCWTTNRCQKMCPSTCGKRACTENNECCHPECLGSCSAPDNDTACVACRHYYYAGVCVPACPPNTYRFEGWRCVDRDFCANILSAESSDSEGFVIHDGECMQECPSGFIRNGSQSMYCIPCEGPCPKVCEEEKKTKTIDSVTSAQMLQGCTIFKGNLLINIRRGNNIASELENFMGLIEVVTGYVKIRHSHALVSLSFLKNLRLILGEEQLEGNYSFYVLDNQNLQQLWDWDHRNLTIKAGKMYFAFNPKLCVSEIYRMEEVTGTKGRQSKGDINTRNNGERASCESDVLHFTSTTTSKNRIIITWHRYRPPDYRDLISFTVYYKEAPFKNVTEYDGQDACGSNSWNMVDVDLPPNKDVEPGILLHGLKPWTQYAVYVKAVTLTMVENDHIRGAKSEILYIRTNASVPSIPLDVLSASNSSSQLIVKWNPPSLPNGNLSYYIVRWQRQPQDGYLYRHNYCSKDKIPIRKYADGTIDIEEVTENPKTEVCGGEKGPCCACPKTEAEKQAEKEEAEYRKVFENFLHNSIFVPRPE

Experiments:
[1] = test system: rat; assay: Blood glucose levels over time for 57mer SCIs with and without fourth disulfide bridge (FIG. 5); format: in vivo; conditions: dose of 20 micrograms per 300 gram rat
[2] = target: B isoform of the insulin receptor (Homo sapiens, UniProt P06213); assay: Receptor binding affinity, insulin receptor B isoform
[3] = target: mitogenic IGF Type I receptor (IGF-1R) (Homo sapiens, UniProt P08069); assay: Receptor binding affinity, IGF-1R; conditions: data not shown
[4] = resembles insulin lispro
[5] = test system: male Sprague-Dawley rats rendered diabetic by treatment with streptozotocin (STZ); assay: Blood-glucose lowering after IV bolus injection in streptozotocin-diabetic rats; format: in vivo, rat
[6] = test system: Sprague-Dawley rats made diabetic with streptozotocin; assay: Stability under extreme conditions (95° C. for 30 min, gentle agitation), read out as glucose lowering after IV bolus in diabetic rats; format: in vivo; conditions: heat-stressed with gentle agitation at 95° C. for 30 min, nominally 1 IU/rat, N=4
[7] = target: A isoform of the insulin receptor (Homo sapiens, UniProt P06213); format: binding; conditions: A isoform versus B isoform
Experimental: The receptor binding affinity of analogue 81-04 and analogue 4SS 81-04 was also determined. The affinity of 4SS 81-04 for the A isoform of the insulin receptor was determined to be 120±20 percent relative to human insulin (and may in fact be the same as wild type human insulin given the error present; data not shown). […] Such impaired binding to IGF-1R is desirable from the perspective of potential carcinogenesis on long-term use.

FVNCHLCGSHLVEALYLVCGERGFFYTDPTEEGPRRGIVEQCCHSCCSLEQLENYCN (disulfide 4-46, 7-43, 19-56, 42-47) [SCI-2]
biological activity (blood glucose levels over time), with versus without fourth disulfide bridge [1]: essentially identical
affinity for the B isoform of the insulin receptor relative to wild type human insulin [2]: reduced by between fivefold and tenfold
affinity for IGF-1R relative to wild type human insulin [3]: reduced by between fivefold and tenfold
onset of action on SQ injection [4]: rapid onset of action

FVNCHLCGSHLVEALYLVCGERGFFYTPRTEEGSRRSRGIVEQCCRSCCSLYQLENYCN (disulfide 4-48, 7-45, 19-58, 44-49) [SCI-1]
duration of in vivo signaling on IV bolus injection ([5]; IV bolus, diabetic rats, compared with insulin lispro (FIGS. 3C and 3D)): normal duration of in vivo signaling
biological activity (change in blood glucose concentration) relative to wild-type insulin, insulin lispro, or insulin glargine ([5]; formulation similar to Lantus, pH near 3.5, one unit equivalent per rat, STZ-diabetic rats, N=4): retain a substantial proportion of the biological activity
activity after 30 min at 95° C. versus fresh sample [6]: complete preservation of activity

FVNQHLCGSHLVEALYLVCGERGFFYTDPTEEGPRRGIVEQCCHSICSLEQLENYCN (disulfide 7-43, 19-56, 42-47) [81-04]
biological activity (blood glucose levels over time), with versus without fourth disulfide bridge [1]: essentially identical
insulin receptor isoform preference [7]: preference for the A isoform
